Measured values reported in article PMC11020453.
These are yes or no findings as the source states them, for the method shown. Binding seen in cells or lysates may run through a third protein. Some entries that bind do so weakly or less than the wild type.

Amino acid sequences for entries named in this document (tags omitted). A change or cut given only in a name is not applied to a line headed by its entry. Residues count along the entry.
UniProt P01106: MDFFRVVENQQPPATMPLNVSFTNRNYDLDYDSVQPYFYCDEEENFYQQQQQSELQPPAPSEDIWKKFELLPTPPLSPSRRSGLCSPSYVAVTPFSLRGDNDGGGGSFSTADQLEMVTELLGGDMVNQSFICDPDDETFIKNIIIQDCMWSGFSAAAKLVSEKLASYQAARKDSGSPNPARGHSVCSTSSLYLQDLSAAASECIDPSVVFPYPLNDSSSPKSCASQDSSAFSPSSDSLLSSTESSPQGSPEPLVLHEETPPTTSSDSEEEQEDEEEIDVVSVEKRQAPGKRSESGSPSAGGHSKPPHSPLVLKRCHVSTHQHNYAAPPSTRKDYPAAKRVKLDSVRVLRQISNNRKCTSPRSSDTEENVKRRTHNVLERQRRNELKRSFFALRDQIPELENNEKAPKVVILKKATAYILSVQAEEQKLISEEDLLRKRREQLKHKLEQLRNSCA
c-MYC deletion mutant lacking amino acids 422–454: residues 1-421 of P01106
UniProt O75716: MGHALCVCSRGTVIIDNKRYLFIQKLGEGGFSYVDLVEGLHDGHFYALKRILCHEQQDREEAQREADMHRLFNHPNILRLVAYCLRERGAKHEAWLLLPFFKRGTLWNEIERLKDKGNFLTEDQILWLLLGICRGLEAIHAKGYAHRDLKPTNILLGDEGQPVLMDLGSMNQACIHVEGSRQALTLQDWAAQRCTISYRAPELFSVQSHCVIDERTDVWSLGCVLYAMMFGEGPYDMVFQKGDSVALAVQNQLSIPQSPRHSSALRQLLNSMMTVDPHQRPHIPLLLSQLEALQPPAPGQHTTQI

Key:
[1] = biological target: c-MYC (MYC proto-oncogene) (human (endogenous in RKO and Lovo)) (UniProt P01106); test: co-IP; lysates of RKO and Lovo cells; primary antibody pre-bound to Protein L magnetic beads (2 h, room temperature), lysate with beads overnight at 4 °C, three washes with PBS, western blot
[2] = biological target: c-MYC deletion mutant lacking amino acids 422–454 (UniProt P01106); test: co-IP; co-immunoprecipitation with c-MYC deletion mutants (Fig. 5D, E); cells and tags not told; primary antibody on Protein L magnetic beads, lysate overnight at 4 °C, three washes with PBS, western blot

STK16 (Serine/threonine kinase 16) (from UniProt O75716 1-305) (enzyme)
binding [1]: binds

STK16 (in the co-immunoprecipitations with c-MYC deletion mutants) (from UniProt O75716 1-305) (enzyme)
binding [2]: no binding
